Reference: the supplement of paper PMC8728848
The list shows a part of the results.

Key:
Assay in all cases: glycan array binding signal (z-score within array); higher = stronger binding
Conditions in all cases: glycan notation: IUPAC condensed, linker removed
Neu5Ac(a2-8)Neu5Ac = molecular target: Neu5Ac(a2-8)Neu5Ac
Outline: (§1)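 Arrays were curated from the Consortium for Functional Glycomics database, 3228 in total, and kept only where the protein sequence was available. Binding is expressed as a within-array Z-score. This score was averaged across arrays of the same protein sequence at different concentrations or buffers and across linkers, and negative values can be read as non-binding.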

[1] = molecular target: Neu5Ac(a2-8)Neu5Ac(a2-3)Gal(b1-3)GalNAc(b1-4)[Neu5Ac(a2-3)]Gal(b1-4)Glc
Outline: as §1

[2] = molecular target: Neu5Ac(a2-8)Neu5Ac(a2-3)Gal(b1-3)GalNAc(b1-4)[Neu5Ac(a2-8)Neu5Ac(a2-3)]Gal(b1-4)Glc
Outline: as §1

[3] = molecular target: Neu5Ac(a2-8)Neu5Ac(a2-3)Gal(b1-4)Glc
Outline: as §1

[4] = molecular target: Neu5Ac(a2-8)Neu5Ac(a2-3)Gal(b1-4)GlcNAc
Outline: as §1

[5] = molecular target: Neu5Ac(a2-8)Neu5Ac(a2-3)[Gal(b1-3)GalNAc(b1-4)]Gal(b1-4)Glc
Outline: as §1

[6] = molecular target: Neu5Ac(a2-8)Neu5Ac(a2-3)[GalNAc(b1-4)]Gal(b1-4)Glc
Outline: as §1

[7] = molecular target: Neu5Ac(a2-8)Neu5Ac(a2-8)Neu5Ac
Outline: as §1

[8] = molecular target: Neu5Ac(a2-8)Neu5Ac(a2-8)Neu5Ac(a2-3)Gal(b1-4)Glc
Outline: as §1

[9] = molecular target: Neu5Ac(a2-8)Neu5Ac(a2-8)Neu5Ac(a2-3)[Gal(b1-3)GalNAc(b1-4)]Gal(b1-4)Glc
Outline: as §1

[10] = molecular target: Neu5Ac(a2-8)Neu5Ac(a2-8)Neu5Ac(a2-3)[GalNAc(b1-4)]Gal(b1-4)Glc
Outline: as §1

[11] = molecular target: Neu5Ac(a2-8)Neu5Ac(a2-8)Neu5Ac(a2-8)Neu5Ac(a2-3)[GalNAc(b1-4)]Gal(b1-4)Glc
Outline: as §1

[12] = molecular target: Neu5Ac(a2-8)Neu5Gc(a2-3)Gal(b1-4)GlcNAc
Outline: as §1

[13] = molecular target: Neu5Ac(b2-6)Gal(b1-4)GlcNAc
Outline: as §1

Neu5Ac(b2-6)GalNAc = molecular target: Neu5Ac(b2-6)GalNAc
Outline: as §1

[14] = molecular target: Neu5Ac9Ac(a2-3)Gal(b1-3)GlcNAc
Outline: as §1

[15] = molecular target: Neu5Ac9Ac(a2-3)Gal(b1-4)GlcNAc
Outline: as §1

[16] = molecular target: Neu5Ac9Ac(a2-6)Gal(b1-4)GlcNAc
Outline: as §1

[17] = molecular target: Neu5Gc(a2-3)Gal(b1-3)GlcNAc
Outline: as §1

[18] = molecular target: Neu5Gc(a2-3)Gal(b1-3)[Fuc(a1-4)]GlcNAc
Outline: as §1

Neu5Gc(a2-3)Gal(b1-4)Glc = molecular target: Neu5Gc(a2-3)Gal(b1-4)Glc
Outline: as §1

[19] = molecular target: Neu5Gc(a2-3)Gal(b1-4)GlcNAc
Outline: as §1

[20] = molecular target: Neu5Gc(a2-3)Gal(b1-4)GlcNAc(b1-3)Gal(b1-4)GlcNAc(b1-2)Man(a1-3)[Neu5Gc(a2-3)Gal(b1-4)GlcNAc(b1-3)Gal(b1-4)GlcNAc(b1-2)Man(a1-6)]Man(b1-4)GlcNAc(b1-4)GlcNAc
Outline: as §1

[21] = molecular target: Neu5Gc(a2-3)Gal(b1-4)[Fuc(a1-3)]GlcNAc
Outline: as §1

[22] = molecular target: Neu5Gc(a2-6)Gal(b1-4)GlcNAc
Outline: as §1

Neu5Gc(a2-6)GalNAc = molecular target: Neu5Gc(a2-6)GalNAc
Outline: as §1

[23] = molecular target: Neu5Gc(a2-8)Neu5Ac(a2-3)Gal(b1-4)GlcNAc
Outline: as §1

[24] = molecular target: Neu5Gc(a2-8)Neu5Gc(a2-3)Gal(b1-4)GlcNAc
Outline: as §1

[25] = molecular target: Neu5Gc(a2-8)Neu5Gc(a2-3)Gal(b1-4)GlcNAc(b1-3)Gal(b1-4)GlcNAc
Outline: as §1

[26] = molecular target: Neu5Gc(a2-8)Neu5Gc(a2-6)Gal(b1-4)GlcNAc
Outline: as §1

[27] = molecular target: Neu5Gc(b2-6)Gal(b1-4)GlcNAc
Outline: as §1

B1: PX9916F-bfa-443-24-443 (Bacteroides fragilis) (protein)
chain: DIRPVGSVIPQTAEEYRALLARAYLNVPNDRGLACLRSDEMLVNDNEYDRNSYGDIERWNDVSPFPGTSQFTWSNFYNVLFIANQVIESQKEITEGTPEVVNQLVGEAHLLRAYLHFVLVNLHGQPYTKSGALNSKSIPLKLDTDLEKTLGRNTVEEVYTSILSDIEHARELINKEKWETVFSYRFNVLSVDALQSRVSLYMGAWPKCLESAEAVLAKKSVLVDMNETPLALPNHFESVESITALEQVMGSSVNNAVWVPATFLALYQEGDKRLAAYFAAPDENGNRKSSKGGKREFSCTFRVGELYLNAAEAAANMDKLPHARMRLLELMRKRYTPEAYDKKENAVNVMDKNALISEILNERARELAFEGHRWFDLRRTTRPRMVKVLQGKTYILEQDDPRYTIPIPRDAIAANPGLAN
Neu5Ac(a2-8)Neu5Ac
  glycan array binding signal (z-score): 1.37
[1]
  glycan array binding signal (z-score): 1.05
[2]
  glycan array binding signal (z-score): 1.04
[3]
  glycan array binding signal (z-score): -0.701
[4]
  glycan array binding signal (z-score): -0.018
[5]
  glycan array binding signal (z-score): -0.864
[6]
  glycan array binding signal (z-score): -0.684
[7]
  glycan array binding signal (z-score): 0.106
[8]
  glycan array binding signal (z-score): -0.106
[9]
  glycan array binding signal (z-score): -0.222
[10]
  glycan array binding signal (z-score): -0.695
[11]
  glycan array binding signal (z-score): -0.835
[12]
  glycan array binding signal (z-score): -0.785
[13]
  glycan array binding signal (z-score): -1.15
Neu5Ac(b2-6)GalNAc
  glycan array binding signal (z-score): -0.822
[14]
  glycan array binding signal (z-score): 0.036
[15]
  glycan array binding signal (z-score): -0.408
[16]
  glycan array binding signal (z-score): -0.27
[17]
  glycan array binding signal (z-score): 0.87
[18]
  glycan array binding signal (z-score): 0.039
Neu5Gc(a2-3)Gal(b1-4)Glc
  glycan array binding signal (z-score): 1.51
[19]
  glycan array binding signal (z-score): -0.662
[20]
  glycan array binding signal (z-score): -0.443
[21]
  glycan array binding signal (z-score): 0.012
[22]
  glycan array binding signal (z-score): -0.35
Neu5Gc(a2-6)GalNAc
  glycan array binding signal (z-score): -0.081
[23]
  glycan array binding signal (z-score): -0.804
[24]
  glycan array binding signal (z-score): -0.891
[25]
  glycan array binding signal (z-score): -1.06
[26]
  glycan array binding signal (z-score): -0.576
[27]
  glycan array binding signal (z-score): -0.32
